The target of the assay is recombinant human BCMA-hFc (soluble human BCMA fused at its C-terminus to an Fc region of IgG) (human) (UniProt Q02223). As to the kind of experiment: flow cytometry of transduced primary CD4 and CD8 T cells stained with recombinant BCMA-Fc (rBCMA, y axis) and for the surrogate marker (x axis). On the technique in general: In flow cytometry, cells or beads pass a laser one at a time.

Protein sequences, listed by entry. Tags and fused reporters are not part of them. Residues count along the entry.
UniProt Q02223, residues 1-54: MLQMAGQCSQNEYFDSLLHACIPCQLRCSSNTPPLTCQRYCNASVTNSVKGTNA

No constants are given. Whether binding was seen depends on the method and setting. Some binding calls cover weakened binding; strength is not graded here.

B1: BCMA-25-LS-O/SSE CAR (protein)
chain: EVQLVQSGGGLVQPGRSLRLSCTASGFTFGDYAMSWFRQAPGKGLEWVGFIRSKAYGGTTEYAASVKGRFTISRDDSKSIAYLQMNSLKTEDTAVYYCAAWSAPTDYWGQGTLVTVSSGGGGSGGGGSGGGGSDIQMTQSPAFLSASVGDRVTVTCRASQGISNYLAWYQQKPGNAPRLLIYSASTLQSGVPSRFRGTGYGTEFSLTIDSLQPEDFATYYCQQSYTSRQTFGPGTRLDIKESKYGPPCPPCPAPPVAGPSVFLFPPKPKDTLMISRTPEVTCVVVDVSQEDPEVQFNWYVDGVEVHNAKTKPREEQFQSTYRVVSVLTVLHQDWLNGKEYKCKVSNKGLPSSIEKTISKAKGQPREPQVYTLPPSQEEMTKNQVSLTCLVKGFYPSDIAVEWESNGQPENNYKTTPPVLDSDGSFFLYSRLTVDKSRWQEGNVFSCSVMHEALHNHYTQKSLSLSLGKMFWVLVVVGGVLACYSLLVTVAFIIFWVKRGRKKLLYIFKQPFMRPVQTTQEEDGCSCRFPEEEEGGCELRVKFSRSADAPAYQQGQNQLYNELNLGRREEYDVLDKRRGRDPEMGGKPRRKNPQEGLYNELQKDKMAEAYSEIGMKGERRRGKGHDGLYQGLSTATKDTYDALHMQALPPR
As for B1, the binding result is reported as “binds”.

Source of the values: patent publication US20210393690A1.
